Settings: N = 43; data cutoff July 14, 2014

| Structure (SMILES) | mean relative dose intensity (proportion of dose prescribed that was actually taken) | patients receiving 100 % of the planned dose |
| --- | --- | --- |
| C[C@@H]1C[C@H]2[C@@H]3CCC4=CC(=O)C=C[C@]4(C)[C@@]3(F)[C@@H](O)C[C@]2(C)[C@@]1(O)C(=O)CO [dexamethasone, reference compound] | 90.9% | 28% |
| CC(C)C[C@H](NC(=O)CNC(=O)c1cc(Cl)ccc1Cl)B(O)O [ixazomib] | 89.6% | – |
| Nc1cccc2c1CN(C1CCC(=O)NC1=O)C2=O (centres unmarked) [lenalidomide, reference compound] | 68.7% | 12% |
